Measurements reported in patent publication US9493421B2, “Acridinedione derivatives for treating pigmentation disorders and ageing of the skin” (PIERRE FABRE DERMO-COSMETIQUE, priority 2011, dated 2016).
For at least one compound, name, drawing or mass did not settle the structure.

Assay: Test to study anti-oxidizing capability using chemiluminescence (Photochem Analytic Jena)
Format: biochemical
Details: quantity of sample needed for activity equivalent to 1 μg Trolox, superoxide anion trapping
Method: This test is used to determine the anti-oxidizing capability of the molecules. It is a method which generates free radicals via photochemical signal. The intensity of oxidation is 1000 times higher than obtained under normal conditions.
Detection is performed using chemiluminescence. This allows evaluation of water-soluble and liposoluble antioxidant molecules or extracts
The results are expressed in equivalent quantity of vitamin C or Trolox (6-hydroxy-2,5,7,8-tetramethylchroman-2-carboxylic acid) respectively. Sensitivity is in the order of one nanomole.
The anti-oxidizing activity studied in this test represents the capability of specifically trapping superoxide anions by chemiluminescence.
The quantified results are expressed in Trolox equivalent (standard) or in “μg of product per 1 μg of Trolox”. This means that a quantity x of sample is needed to obtain activity equivalent to the activity detected with 1 μg of standard. It is the antioxidizing power in relation to a reference; this avoids having to take into account the concentrations tested. […]
Part of the superoxide anions are inhibited by the antioxidants. The remaining free radicals are quantified by chemiluminescence. L^∘^++O2^∘^−→N2+AP*^2−→AP^2−+hv (luminescence) […]

Structure (SMILES): CC1(C)CC(=O)C2=C(C1)NC1=C(C(=O)CC(C)(C)C1)C2c1ccc(O)c(O)c1 [Example 2, 9-(3,4-dihydroxyphenyl)-3,3,6,6-tetramethyl-3,4,6,7,9,10-hexahydroacridine-1,8(2H,5H)-dione]
- μg sample per 1 μg of Trolox: 0.04 μg sample per 1 μg of Trolox
